The other results are listed elsewhere or left out.
Assays:
Assay in all cases: glycan array binding signal (z-score within array); higher = stronger binding
Details in all cases: glycan notation: IUPAC condensed, linker removed
[1] = biological target: Gal(b1-4)GlcNAc(b1-3)Gal(b1-4)GlcNAc(b1-3)Gal(b1-4)GlcNAc
Procedure, shortened: (§1)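 Columns mapping to the same glycan were averaged after glycan names were converted to IUPAC-condensed notation. The data come from 3228 arrays in the Consortium for Functional Glycomics database, limited to those with an available protein sequence. Binding is reported as a within-array Z-score averaged across arrays of one protein sequence and across linkers.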

[2] = biological target: Gal(b1-4)GlcNAc(b1-3)Gal(b1-4)GlcNAc(b1-3)Gal(b1-4)GlcNAc(b1-2)Man(a1-3)[Gal(b1-4)GlcNAc(b1-3)Gal(b1-4)GlcNAc(b1-3)Gal(b1-4)GlcNAc(b1-2)Man(a1-6)]Man(b1-4)GlcNAc(b1-4)GlcNAc
Procedure, shortened: as §1

[3] = biological target: Gal(b1-4)GlcNAc(b1-3)Gal(b1-4)GlcNAc(b1-3)Gal(b1-4)GlcNAc(b1-2)Man(a1-3)[Gal(b1-4)GlcNAc(b1-3)Gal(b1-4)GlcNAc(b1-3)Gal(b1-4)GlcNAc(b1-2)Man(a1-6)]Man(b1-4)GlcNAc(b1-4)[Fuc(a1-6)]GlcNAc
Procedure, shortened: as §1

[4] = biological target: Gal(b1-4)GlcNAc(b1-3)Gal(b1-4)GlcNAc(b1-3)Gal(b1-4)GlcNAc(b1-2)[Gal(b1-4)GlcNAc(b1-3)Gal(b1-4)GlcNAc(b1-3)Gal(b1-4)GlcNAc(b1-6)]Man(a1-6)[Gal(b1-4)GlcNAc(b1-3)Gal(b1-4)GlcNAc(b1-3)Gal(b1-4)GlcNAc(b1-2)Man(a1-3)]Man(b1-4)GlcNAc(b1-4)[Fuc(a1-6)]GlcNAc
Procedure, shortened: as §1

[5] = biological target: Gal(b1-4)GlcNAc(b1-3)Gal(b1-4)GlcNAc(b1-3)Gal(b1-4)GlcNAc(b1-3)Gal(b1-4)GlcNAc(b1-2)Man(a1-3)[Gal(b1-4)GlcNAc(b1-3)Gal(b1-4)GlcNAc(b1-3)Gal(b1-4)GlcNAc(b1-3)Gal(b1-4)GlcNAc(b1-2)Man(a1-6)]Man(b1-4)GlcNAc(b1-4)GlcNAc
Procedure, shortened: as §1

[6] = biological target: Gal(b1-4)GlcNAc(b1-3)Gal(b1-4)GlcNAc(b1-3)Gal(b1-4)GlcNAc(b1-3)Gal(b1-4)GlcNAc(b1-2)Man(a1-3)[Gal(b1-4)GlcNAc(b1-3)Gal(b1-4)GlcNAc(b1-3)Gal(b1-4)GlcNAc(b1-3)Gal(b1-4)GlcNAc(b1-2)Man(a1-6)]Man(b1-4)GlcNAc(b1-4)[Fuc(a1-6)]GlcNAc
Procedure, shortened: as §1

[7] = biological target: Gal(b1-4)GlcNAc(b1-3)Gal(b1-4)GlcNAc(b1-3)Gal(b1-4)GlcNAc(b1-3)Gal(b1-4)GlcNAc(b1-2)[Gal(b1-4)GlcNAc(b1-3)Gal(b1-4)GlcNAc(b1-3)Gal(b1-4)GlcNAc(b1-3)Gal(b1-4)GlcNAc(b1-6)]Man(a1-6)[Gal(b1-4)GlcNAc(b1-3)Gal(b1-4)GlcNAc(b1-3)Gal(b1-4)GlcNAc(b1-3)Gal(b1-4)GlcNAc(b1-2)Man(a1-3)]Man(b1-4)GlcNAc(b1-4)[Fuc(a1-6)]GlcNAc
Procedure, shortened: as §1

[8] = biological target: Gal(b1-4)GlcNAc(b1-3)Gal(b1-4)GlcNAc(b1-3)Gal(b1-4)GlcNAc(b1-3)Gal(b1-4)GlcNAc(b1-3)Gal(b1-4)GlcNAc(b1-2)Man(a1-3)[Gal(b1-4)GlcNAc(b1-3)Gal(b1-4)GlcNAc(b1-3)Gal(b1-4)GlcNAc(b1-3)Gal(b1-4)GlcNAc(b1-3)Gal(b1-4)GlcNAc(b1-2)Man(a1-6)]Man(b1-4)GlcNAc(b1-4)GlcNAc
Procedure, shortened: as §1

[9] = biological target: Gal(b1-4)GlcNAc(b1-3)Gal(b1-4)GlcNAc(b1-3)Gal(b1-4)GlcNAc(b1-3)Gal(b1-4)GlcNAc(b1-3)Gal(b1-4)GlcNAc(b1-2)Man(a1-3)[Gal(b1-4)GlcNAc(b1-3)Gal(b1-4)GlcNAc(b1-3)Gal(b1-4)GlcNAc(b1-3)Gal(b1-4)GlcNAc(b1-3)Gal(b1-4)GlcNAc(b1-2)Man(a1-6)]Man(b1-4)GlcNAc(b1-4)[Fuc(a1-6)]GlcNAc
Procedure, shortened: as §1

[10] = biological target: Gal(b1-4)GlcNAc(b1-3)Gal(b1-4)GlcNAc(b1-3)Gal(b1-4)GlcNAc(b1-3)Gal(b1-4)GlcNAc(b1-3)Gal(b1-4)GlcNAc(b1-2)[Gal(b1-4)GlcNAc(b1-3)Gal(b1-4)GlcNAc(b1-3)Gal(b1-4)GlcNAc(b1-3)Gal(b1-4)GlcNAc(b1-3)Gal(b1-4)GlcNAc(b1-6)]Man(a1-6)[Gal(b1-4)GlcNAc(b1-3)Gal(b1-4)GlcNAc(b1-3)Gal(b1-4)GlcNAc(b1-3)Gal(b1-4)GlcNAc(b1-3)Gal(b1-4)GlcNAc(b1-2)Man(a1-3)]Man(b1-4)GlcNAc(b1-4)[Fuc(a1-6)]GlcNAc
Procedure, shortened: as §1

[11] = biological target: Gal(b1-4)GlcNAc(b1-3)Gal(b1-4)GlcNAc(b1-3)Gal(b1-4)GlcNAc(b1-3)Gal(b1-4)GlcNAc(b1-3)Gal(b1-4)GlcNAc(b1-3)Gal(b1-4)GlcNAc(b1-2)Man(a1-3)[Gal(b1-4)GlcNAc(b1-3)Gal(b1-4)GlcNAc(b1-3)Gal(b1-4)GlcNAc(b1-3)Gal(b1-4)GlcNAc(b1-3)Gal(b1-4)GlcNAc(b1-3)Gal(b1-4)GlcNAc(b1-2)Man(a1-6)]Man(b1-4)GlcNAc(b1-4)GlcNAc
Procedure, shortened: as §1

[12] = biological target: Gal(b1-4)GlcNAc(b1-3)Gal(b1-4)GlcNAc(b1-3)GalNAc
Procedure, shortened: as §1

[13] = biological target: Gal(b1-4)GlcNAc(b1-3)Gal(b1-4)GlcNAc(b1-3)[Gal(b1-4)GlcNAc(b1-3)Gal(b1-4)GlcNAc(b1-6)]GalNAc
Procedure, shortened: as §1

[14] = biological target: Gal(b1-4)GlcNAc(b1-3)Gal(b1-4)GlcNAc(b1-6)[Gal(b1-3)]GalNAc
Procedure, shortened: as §1

[15] = biological target: Gal(b1-4)GlcNAc(b1-3)Gal(b1-4)[Fuc(a1-3)GlcNAc(b1-6)]Gal(b1-4)Glc
Procedure, shortened: as §1

[16] = biological target: Gal(b1-4)GlcNAc(b1-3)Gal(b1-4)[Fuc(a1-3)]GlcNAc(b1-3)Gal(b1-4)[Fuc(a1-3)]GlcNAc
Procedure, shortened: as §1

[17] = biological target: Gal(b1-4)GlcNAc(b1-3)GalNAc
Procedure, shortened: as §1

[18] = biological target: Gal(b1-4)GlcNAc(b1-3)[Fuc(a1-3)GlcNAc(b1-6)]Gal(b1-4)Glc
Procedure, shortened: as §1

[19] = biological target: Gal(b1-4)GlcNAc(b1-3)[Gal(b1-4)GlcNAc(b1-6)]Gal(b1-4)GlcNAc
Procedure, shortened: as §1

[20] = biological target: Gal(b1-4)GlcNAc(b1-3)[Gal(b1-4)GlcNAc(b1-6)]GalNAc
Procedure, shortened: as §1

[21] = biological target: Gal(b1-4)GlcNAc(b1-3)[GlcNAc(b1-6)]Gal(b1-4)GlcNAc
Procedure, shortened: as §1

[22] = biological target: Gal(b1-4)GlcNAc(b1-6)Gal(b1-4)GlcNAc
Procedure, shortened: as §1

[23] = biological target: Gal(b1-4)GlcNAc(b1-6)GalNAc
Procedure, shortened: as §1

[24] = biological target: Gal(b1-4)GlcNAc(b1-6)[Gal(b1-3)]GalNAc
Procedure, shortened: as §1

[25] = biological target: Gal(b1-4)GlcNAc(b1-6)[Gal(b1-4)GlcNAc(b1-3)]GalNAc
Procedure, shortened: as §1

[26] = biological target: Gal(b1-4)GlcNAc6P
Procedure, shortened: as §1

[27] = biological target: Gal(b1-6)Gal
Procedure, shortened: as §1

[28] = biological target: Gal3S(b1-3)GalNAc
Procedure, shortened: as §1

[29] = biological target: Gal3S(b1-3)GlcNAc
Procedure, shortened: as §1

[30] = biological target: Gal3S(b1-3)[Fuc(a1-4)]GlcNAc
Procedure, shortened: as §1

[31] = biological target: Gal3S(b1-4)Glc
Procedure, shortened: as §1

[32] = biological target: Gal3S(b1-4)Glc6S
Procedure, shortened: as §1

[33] = biological target: Gal3S(b1-4)GlcNAc
Procedure, shortened: as §1

[34] = biological target: Gal3S(b1-4)GlcNAc6S
Procedure, shortened: as §1

[35] = biological target: Gal3S(b1-4)[Fuc(a1-3)]Glc
Procedure, shortened: as §1

[36] = biological target: Gal3S(b1-4)[Fuc(a1-3)]Glc6S
Procedure, shortened: as §1

[37] = biological target: Gal3S(b1-4)[Fuc(a1-3)]GlcNAc
Procedure, shortened: as §1

[38] = biological target: Gal3S(b1-4)[Fuc(a1-3)]GlcNAc6S
Procedure, shortened: as §1

[39] = biological target: Gal3S4S(b1-4)GlcNAc
Procedure, shortened: as §1

[40] = biological target: Gal3S6S(b1-4)GlcNAc
Procedure, shortened: as §1

[41] = biological target: Gal3S6S(b1-4)GlcNAc6S
Procedure, shortened: as §1

[42] = biological target: Gal4S(b1-4)GlcNAc
Procedure, shortened: as §1

[43] = biological target: Gal4S6S(b1-4)GlcNAc
Procedure, shortened: as §1

[44] = biological target: Gal6P(b1-4)GlcNAc
Procedure, shortened: as §1

[45] = biological target: Gal6S(b1-3)GlcNAc
Procedure, shortened: as §1

[46] = biological target: Gal6S(b1-3)GlcNAc6S
Procedure, shortened: as §1

[47] = biological target: Gal6S(b1-4)Glc
Procedure, shortened: as §1

[48] = biological target: Gal6S(b1-4)Glc6S
Procedure, shortened: as §1

[49] = biological target: Gal6S(b1-4)GlcNAc
Procedure, shortened: as §1

[50] = biological target: Gal6S(b1-4)GlcNAc6S
Procedure, shortened: as §1

[51] = biological target: GalNAc(a1-3)Gal
Procedure, shortened: as §1

[52] = biological target: GalNAc(a1-3)GalNAc
Procedure, shortened: as §1

## KILRGVCKKIMRTFLRRISKDILTGKK [NK2 (Sus scrofa)]
[1]
  glycan array binding signal (z-score): -0.905
[2]
  glycan array binding signal (z-score): -0.037
[3]
  glycan array binding signal (z-score): 0.462
[4]
  glycan array binding signal (z-score): -1
[5]
  glycan array binding signal (z-score): -0.393
[6]
  glycan array binding signal (z-score): 0.163
[7]
  glycan array binding signal (z-score): -1.12
[8]
  glycan array binding signal (z-score): -0.345
[9]
  glycan array binding signal (z-score): 0.626
[10]
  glycan array binding signal (z-score): 0.512
[11]
  glycan array binding signal (z-score): -1.28
[12]
  glycan array binding signal (z-score): 1.54
[13]
  glycan array binding signal (z-score): 0.23
[14]
  glycan array binding signal (z-score): 2.04
[15]
  glycan array binding signal (z-score): -0.546
[16]
  glycan array binding signal (z-score): -0.231
[17]
  glycan array binding signal (z-score): -0.217
[18]
  glycan array binding signal (z-score): 0.294
[19]
  glycan array binding signal (z-score): -0.49
[20]
  glycan array binding signal (z-score): -0.461
[21]
  glycan array binding signal (z-score): -0.426
[22]
  glycan array binding signal (z-score): 0.164
[23]
  glycan array binding signal (z-score): 0.535
[24]
  glycan array binding signal (z-score): -0.522
[25]
  glycan array binding signal (z-score): 0.025
[26]
  glycan array binding signal (z-score): 0.037
[27]
  glycan array binding signal (z-score): 0.626
[28]
  glycan array binding signal (z-score): 0.183
[29]
  glycan array binding signal (z-score): 0.725
[30]
  glycan array binding signal (z-score): 0.208
[31]
  glycan array binding signal (z-score): -0.124
[32]
  glycan array binding signal (z-score): 1.67
[33]
  glycan array binding signal (z-score): 1.36
[34]
  glycan array binding signal (z-score): 4.29
[35]
  glycan array binding signal (z-score): -0.169
[36]
  glycan array binding signal (z-score): 1.45
[37]
  glycan array binding signal (z-score): 1.2
[38]
  glycan array binding signal (z-score): 1.59
[39]
  glycan array binding signal (z-score): 2.81
[40]
  glycan array binding signal (z-score): 2.92
[41]
  glycan array binding signal (z-score): 3.98
[42]
  glycan array binding signal (z-score): 0.794
[43]
  glycan array binding signal (z-score): 2.26
[44]
  glycan array binding signal (z-score): -1.5
[45]
  glycan array binding signal (z-score): 1.05
[46]
  glycan array binding signal (z-score): 3.16
[47]
  glycan array binding signal (z-score): -0.196
[48]
  glycan array binding signal (z-score): 1.56
[49]
  glycan array binding signal (z-score): 1.22
[50]
  glycan array binding signal (z-score): 2.85
[51]
  glycan array binding signal (z-score): -0.277
[52]
  glycan array binding signal (z-score): -0.861

Reference: the supplement of paper PMC8728848
